Experimental data reported in patent publication US20240117326A1.
No constants are given. Whether binding was seen depends on the method and setting. In cells and extracts the contact can be indirect. Some binding calls cover weakened binding; strength is not graded here. Where a sequence is shown, tags or fusion partners need not be part of it. Values belong to the binder of their own block, whether it stands above or below them.

Chains of the proteins cited; added tags and fusions are not shown. Lines headed by an entry give the natural chain unless they say otherwise; changes in a name come on top.
UniProt P16267: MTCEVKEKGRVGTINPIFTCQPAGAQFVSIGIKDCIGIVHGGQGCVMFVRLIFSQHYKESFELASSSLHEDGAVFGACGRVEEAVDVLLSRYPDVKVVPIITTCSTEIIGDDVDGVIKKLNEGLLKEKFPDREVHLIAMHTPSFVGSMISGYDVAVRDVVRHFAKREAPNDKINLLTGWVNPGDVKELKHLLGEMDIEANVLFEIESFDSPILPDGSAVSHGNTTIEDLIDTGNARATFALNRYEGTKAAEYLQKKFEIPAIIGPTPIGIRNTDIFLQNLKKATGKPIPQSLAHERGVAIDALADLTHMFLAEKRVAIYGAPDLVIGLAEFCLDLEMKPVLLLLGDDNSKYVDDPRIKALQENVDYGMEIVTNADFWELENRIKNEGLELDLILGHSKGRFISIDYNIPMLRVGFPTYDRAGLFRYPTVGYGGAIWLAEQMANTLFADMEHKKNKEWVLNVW

Tests used:
[1] = biological target: MPP-processed MTP-CoxIV::Twin Strep::AnfK fusion polypeptide (gene of SN195; in SL34, SL37, SL43) (Azotobacter vinelandii) (UniProt P16267); assay: co-purification on Strep-tactin XT column through TwinStrep::AnfK (SL37), anaerobic; anti-HA Western blot of the eluate
[2] = biological target: MPP-processed MTP-CoxIV::TwinStrep::AvAnfG fusion polypeptide (in SL93) (Azotobacter vinelandii); assay: co-purification on Strep-tactin XT column through TwinStrep::AnfG (SL93), anaerobic; anti-HA Western blot of the eluate

binding [1]: binds
B1: unprocessed MTP-FAγ51::AnfD::HA fusion polypeptide (gene of SN81; in SL37) (enzyme)
chain: MMAMAVFRREGRRLLPSIAARPIAAIRSPLSSDQEEGLLGVRSISTQVVRNRGGMPHHEFECSKVIPERKKHAVIKGKGETLADALPQGYLNTIPGSISERGCAYCGAKHVIGTPMKDVIHISHGPVGCTYDTWQTKRYISDNDNFQLKYTYATDVKEKHIVFGAEKLLKQNIIEAFKAFPQIKRMTIYQTCATALIGDDINAIAEEVMEEMPEVDIFVCNSPGFAGPSQSGGHHKINIAWINQKVGTVEPEITGDHVINYVGEYNIQGDQEVMVDYFKRMGIQVLSTFTGNGSYDGLRAMHRAHLNVLECARSAEYICNELRVRYGIPRLDIDGFGFKPLADSLRKIGMFFGIEDRAKAIIDEEVARWKPELDWYKERLMGKKVCLWPGGSKLWHWAHVIEEEMGLKVVSVYTKFGHQGDMEKGIARCGEGTLAIDDPNELEGLEALEMLKPDIILTGKRPGEVAKKVRVPYLNAHAYHNGPYKGFEGWVRFARDIYNAIYSPIHQLSGIDITKDNAPEWGNGFRTRQMLSDGNLSDAVRNSETLRQYTGGYDSVSKLREREYPAFERKVGGGYPYDVPDYA

binding [2]: binds
B2: unprocessed MTP-FAγ51::HA::AnfD fusion polypeptide (gene of SN161; in SL93) (enzyme)
chain: MAMAVFRREGRRLLPSIAARPIAAIRSPLSSDQEEGLLGVRSISTQVVRNRGGYPYDVPDYAGGMPHHEFECSKVIPERKKHAVIKGKGETLADALPQGYLNTIPGSISERGCAYCGAKHVIGTPMKDVIHISHGPVGCTYDTWQTKRYISDNDNFQLKYTYATDVKEKHIVFGAEKLLKQNIIEAFKAFPQIKRMTIYQTCATALIGDDINAIAEEVMEEMPEVDIFVCNSPGFAGPSQSGGHHKINIAWINQKVGTVEPEITGDHVINYVGEYNIQGDQEVMVDYFKRMGIQVLSTFTGNGSYDGLRAMHRAHLNVLECARSAEYICNELRVRYGIPRLDIDGFGFKPLADSLRKIGMFFGIEDRAKAIIDEEVARWKPELDWYKERLMGKKVCLWPGGSKLWHWAHVIEEEMGLKVVSVYTKFGHQGDMEKGIARCGEGTLAIDDPNELEGLEALEMLKPDIILTGKRPGEVAKKVRVPYLNAHAYHNGPYKGFEGWVRFARDIYNAIYSPIHQLSGIDITKDNAPEWGNGFRTRQMLSDGNLSDAVRNSETLRQYTGGYDSVSKLREREYPAFERKVG

binding [2]: binds
B3: unprocessed MTP-FAγ51::HA::AnfK fusion polypeptide (gene of SN129; in SL93) (enzyme)
chain: MAMAVFRREGRRLLPSIAARPIAAIRSPLSSDQEEGLLGVRSISTQVVRNRGGYPYDVPDYAGGMTCEVKEKGRVGTINPIFTCQPAGAQFVSIGIKDCIGIVHGGQGCVMFVRLIFSQHYKESFELASSSLHEDGAVFGACGRVEEAVDVLLSRYPDVKVVPIITTCSTEIIGDDVDGVIKKLNEGLLKEKFPDREVHLIAMHTPSFVGSMISGYDVAVRDVVRHFAKREAPNDKINLLTGWVNPGDVKELKHLLGEMDIEANVLFEIESFDSPILPDGSAVSHGNTTIEDLIDTGNARATFALNRYEGTKAAEYLQKKFEIPAIIGPTPIGIRNTDIFLQNLKKATGKPIPQSLAHERGVAIDALADLTHMFLAEKRVAIYGAPDLVIGLAEFCLDLEMKPVLLLLGDDNSKYVDDPRIKALQENVDYGMEIVTNADFWELENRIKNEGLELDLILGHSKGRFISIDYNIPMLRVGFPTYDRAGLFRYPTVGYGGAIWLAEQMANTLFADMEHKKNKEWVLNVW
